ChEMBL document CHEMBL3044639, “Synthesis and biologic activities of some novel heterocyclic chalcone derivatives” (Med Chem Res, 2013)

Tested on: Staphylococcus aureus
Experiment: Antibacterial activity against Staphylococcus aureus 1199B overexpressing NorA assessed as growth inhibition after 18 hr by broth checkerboard method
Type: functional

O=C(O)c1cn(C2CC2)c2cc(N3CCNCC3)c(F)cc2c1=O [CIPROFLOXACIN] showed an MIC of 8 µg/mL.
